PubChem BioAssay AID1224831 | NIAID | 2016

- Assay: 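Confirming genome-wide hits on LPS-triggered TNF-alpha induction with independent siRNA sequences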 (follow-up of hits)
- Cells: human THP-1 B5 monocytic leukaemia cells carrying a TNF promoter luciferase reporter, made macrophage-like with PMA
- Reagent: single siRNA against human genes, 50 nM
- Time to read-out: about 68 h of knock-down, then 4 h LPS
- Treatment: LPS (Salmonella minnesota, TLR-grade) at 10 ng/ml for 4 h; PMA 5 ng/ml present during knock-down
- Measurement: 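TNF promoter reporter read as dual luciferase ratio after 4 h LPS, normalised per plate to its median, given as replicate mean robust z-score per siRNA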
- Scale: TNF reporter z-score: higher = stronger LPS-induced TNF reporter signal; z-score, median over gene's siRNAs: higher = stronger TNF reporter signal across the gene's siRNAs
- Rule for the call: 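Active when the replicate mean z-score is about -1 or lower, or about 1.5 or higher; lowered and raised TNF reporter signal both count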
- Meaning of the calls: active = changed TNF reporter (either direction); inactive = little change
The deposit covers about 3,500 reagents; below is a part drawn at random. 731 of all reagents (21%) were called active. 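Active means either lowered or raised reporter signal; the gene-median score did not drive the per-siRNA calls.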 Unmarked entries are inactive. Reagents against one gene are numbered here.

"TNF reporter z-score, replicate mean","z-score, median over gene's siRNAs",Target gene,reagent no.
-1.18 (active),0.09,BTG4,1
0.39,0.09,BTG4,2
0.16,0.09,BTG4,3
-0.61,0.09,BTG4,4
0.22,0.09,BTG4,5
0.02,0.09,BTG4,6
-0.07,0.09,ULBP1,1
-0.69,0.09,ULBP1,2
0.59,0.09,ULBP1,3
0.25,0.09,ULBP1,4
-0.33,0.09,ULBP1,5
1.11,0.09,ULBP1,6
-0.38,0.04,NDUFS8,1
0.13,0.04,NDUFS8,2
-0.81,0.04,NDUFS8,3
-0.05,0.04,NDUFS8,4
2.68 (active),0.04,NDUFS8,5
1.11,0.04,NDUFS8,6
-0.28,0.59,RASA4,1
0.41,0.59,RASA4,2
0.77,0.59,RASA4,3
1.36,0.59,RASA4,4
-0.53,0.59,RASA4,5
1.11,0.59,RASA4,6
0.23,0.73,TLK2,1
0.51,0.73,TLK2,2
2.44 (active),0.73,TLK2,3
0.95,0.73,TLK2,4
-1.49 (active),0.73,TLK2,5
1.7 (active),0.73,TLK2,6
-0.02,0.305,RPL23,1
0.93,0.305,RPL23,2
0.17,0.305,RPL23,3
-0.31,0.305,RPL23,4
2.12 (active),0.305,RPL23,5
0.44,0.305,RPL23,6
-0.75,-0.9,ABT1,1
-0.57,-0.9,ABT1,2
-1.69 (active),-0.9,ABT1,3
-1.69 (active),-0.9,ABT1,4
-0.79,-0.9,ABT1,5
-1.01 (active),-0.9,ABT1,6
0.93,-0.04,HMGN5,1
-0.66,-0.04,HMGN5,2
0.58,-0.04,HMGN5,3
1.3,-0.04,HMGN5,4
-1.1 (active),-0.04,HMGN5,5
-1.07 (active),-0.04,HMGN5,6
1.49,0.69,TTLL3,1
0.82,0.69,TTLL3,2
-0.89,0.69,TTLL3,3
-0.36,0.69,TTLL3,4
0.56,0.69,TTLL3,5
1.25,0.69,TTLL3,6

The list goes on (11 carried over from the part before).
"TNF reporter z-score, replicate mean","z-score, median over gene's siRNAs",Target gene,reagent no.
-0.66,-0.04,HMGN5,2
0.58,-0.04,HMGN5,3
1.3,-0.04,HMGN5,4
-1.1 (active),-0.04,HMGN5,5
-1.07 (active),-0.04,HMGN5,6
1.49,0.69,TTLL3,1
0.82,0.69,TTLL3,2
-0.89,0.69,TTLL3,3
-0.36,0.69,TTLL3,4
0.56,0.69,TTLL3,5
1.25,0.69,TTLL3,6
-0.56,-0.425,TAC4,1
0.4,-0.425,TAC4,2
-0.32,-0.425,TAC4,3
-0.37,-0.425,TAC4,4
-0.48,-0.425,TAC4,5
-1.43 (active),-0.425,TAC4,6
-1.13 (active),-0.375,BMP7,1
0.49,-0.375,BMP7,2
-0.03,-0.375,BMP7,3
-0.85,-0.375,BMP7,4
0.06,-0.375,BMP7,5
-0.72,-0.375,BMP7,6
0.53,0.42,KRT2,1
-2.39 (active),0.42,KRT2,2
0.57,0.42,KRT2,3
0.31,0.42,KRT2,4
1.76 (active),0.42,KRT2,5
-0.65,0.42,KRT2,6
-1.57 (active),-1.38,HSP90B1,1
-1.89 (active),-1.38,HSP90B1,2
-0.68,-1.38,HSP90B1,3
-1.19 (active),-1.38,HSP90B1,4
-1.97 (active),-1.38,HSP90B1,5
-0.52,-1.38,HSP90B1,6
-1.86 (active),-1.51,NXF1,1
-1.87 (active),-1.51,NXF1,2
-1.65 (active),-1.51,NXF1,3
-1.37 (active),-1.51,NXF1,4
-0.84,-1.51,NXF1,5
-0.5,-1.51,NXF1,6
